Assay results: PubChem BioAssay AID2685 (National Center for Advancing Translational Sciences (NCATS), 2010)
The other results are listed elsewhere or left out. Further columns of the screen follow, without active or inactive calls. The list favours compounds with an active or inconclusive main result. Potencies come from curve fits of mixed quality, noted in brackets.

Assay: qHTS Assay for Lipid Storage Modulators in Drosophila S3 Cells;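 on cell number change: cells counted by Cell Tracker Red CMTPX staining in the red channel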
Conditions: BODIPY lipid droplet fluorescence, 18-24 h; for cell number change: measured here: cell count max response, cells fed with added oleic acid
Outline: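 Drosophila S3 cells loaded with oleic acid (400 uM, as added) and compounds at several concentrations; lipid droplets imaged by 488-nm laser-scanning cytometry, 500–530 nm intensity and object ratio to cell channel. Percent activity normalized to 20 uM Triacsin C.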

[1] = measured here: cell number channel AC50, cells fed with added oleic acid
[2] = measured here: lipid fluorescence (Fed channel) AC50, cells fed with added oleic acid

Row | Structure (SMILES) | cell number change [%] | AC50 [1] | AC50 [2]
1 | Cc1ccc(CN(C)C(=O)CN2C(=O)NC3(CCCC3)C2=O)o1 | -45.3 | 23.1 µM [falling, partial curve, poor fit] | 20.6 µM [falling, partial curve, poor fit]
2 | CCOCCCn1c(SCC(=O)Nc2cc(OC)ccc2OC)nc2ccccc2c1=O | 2.33 | – | –
3 | O=C(C1CCN(S(=O)(=O)c2ccc(Br)s2)CC1)N1CCN(c2ccccc2)CC1 | 3.15 | – | 0.116 µM [rising, full curve, poor fit]
4 | CSc1nnc(C)c(/C=C/NOCc2ccc(Cl)cc2)n1 | 31.6 | 0.116 µM [rising, partial curve, poor fit] | 6.51 µM [rising, single point]
5 | O=C(N=C1SC2CS(=O)(=O)CC2N1Cc1ccc(Cl)cc1)C1CCCO1 (configuration not stated) | 2.29 | 6.51 µM [rising, single point] | 6.51 µM [rising, single point]
6 | Clc1ccc(-c2ccc(/C=N/Nc3nncc(-c4ccccc4)n3)o2)cc1 | 53.8 | 0.146 µM [rising, full curve] | –
7 | Oc1ccc(N=Nc2cccc(C(F)(F)F)c2)cc1C=Nc1ccc(N2CCOCC2)cc1 | -5.01 | – | 8.2 µM [falling, partial curve]
8 | Cc1cc(NC(=O)c2ccc(C)c(C)c2)no1 | -1.09 | – | 29.1 µM [rising, single point]
9 | CCCC(C)C(=O)NCc1ccc2c(c1)OCO2 (configuration not stated) | 42.3 | 4.61 µM [rising, partial curve] | –
10 | Cc1ccccc1-n1c(-c2cccnc2)n[nH]c1=S | 7.53 | – | 0.146 µM [rising, full curve, poor fit]
11 | COc1ccc(CCN2C(=O)NC(NS(=O)(=O)c3ccc(NC(C)=O)cc3)(C(F)(F)F)C2=O)cc1OC (configuration not stated) | -3.69 | 0.00517 µM [falling, full curve, poor fit] | 0.00517 µM [falling, full curve, poor fit]
12 | COc1cc(OC)c(/C=C2\SC(=O)N(CC(=O)Nc3ccccc3F)C2=O)c(OC)c1 | 37.8 | 4.11 µM [rising, partial curve, poor fit] | 3.66 µM [falling, full curve]
13 | Cc1c(Cl)cccc1NCC(=O)Nc1ccc(Cl)cc1F | -40.2 | 14.6 µM [falling, partial curve] | 16.4 µM [falling, partial curve, poor fit]
14 | Cc1ccc(S(=O)(=O)N(C)CC(=O)NCC(c2ccco2)N(C)C)cc1 (configuration not stated) | -11.2 | – | 0.731 µM [falling, full curve, poor fit]
15 | Cn1c(N)c(C(=O)COC(=O)c2ccccc2C(=O)c2ccccc2)c(=O)n(C)c1=O | -10.9 | – | 7.31 µM [falling, partial curve, poor fit]
16 | c1ccc(-c2cn(-c3ccccc3)c3[n+]2CCS3)cc1 | -22.4 | 6.51 µM [rising, single point] | –
17 | CCCCn1c(N)c(N(CC(C)C)C(=O)Cc2ccc3c(c2)OCCO3)c(=O)[nH]c1=O | -75 | 29.1 µM [falling, single point] | –
18 | COc1ccc(/C=C2\Oc3cc(OC(=O)N4CCOCC4)ccc3C2=O)cc1 | 10.2 | – | 0.92 µM [rising, partial curve]
19 | Cc1nn(CC(=O)NCc2ccccc2)c(C)c1[N+](=O)[O-] | -15.4 | – | 4.11 µM [falling, full curve, poor fit]
20 | CCS(=O)(=O)c1ccc2oc(Nc3ccc(C(C)(C)C)cc3)nc2c1 | -23.2 | – | –

An excerpt from above in order of count of non-hydrogen atoms, rising.
Row | Structure (SMILES) | cell number change [%] | AC50 [1] | AC50 [2]
16 | c1ccc(-c2cn(-c3ccccc3)c3[n+]2CCS3)cc1 | -22.4 | 6.51 µM [rising, single point] | –
20 | CCS(=O)(=O)c1ccc2oc(Nc3ccc(C(C)(C)C)cc3)nc2c1 | -23.2 | – | –
14 | Cc1ccc(S(=O)(=O)N(C)CC(=O)NCC(c2ccco2)N(C)C)cc1 (configuration not stated) | -11.2 | – | 0.731 µM [falling, full curve, poor fit]

The results go on.

Row | Structure (SMILES) | cell number change [%] | AC50 [1] | AC50 [2]
21 | COc1ccc(S(=O)(=O)N2CCC(C(=O)NC3CCCC3)CC2)cc1C | -14.5 | – | –
22 | CC(C)CCN(C(=O)CCSc1ccc(F)cc1)c1c(N)n(Cc2ccccc2)c(=O)[nH]c1=O | -25.5 | – | –
23 | CCC1CCCCN1CCCNC(=O)c1cc2c(=O)oc3ccc(C)cc3c2s1 (configuration not stated) | -13.7 | – | 6.51 µM [rising, single point]
24 | CCN(CC)c1ccc(/C=N/N2CCN(Cc3ccccc3Cl)CC2)cc1 | -51.4 | 13 µM [falling, partial curve, poor fit] | 4.61 µM [falling, full curve]
25 | CCOc1ccc(C(=O)Nc2nc3ccccc3[nH]2)cc1OCC | 26.9 | 0.82 µM [rising, full curve, poor fit] | 0.517 µM [rising, full curve, poor fit]
26 | Cn1ccc(C(=O)N/N=C/c2ccncc2)n1 | 9.12 | – | 25.9 µM [rising, single point]
27 | O=C(Nc1ccncc1)c1cc(S(=O)(=O)N2CCCCC2)ccc1Cl | 77.5 | 20.6 µM [rising, single point] | –
28 | CC(Sc1nnc(C2CCCCC2)n1N)C(=O)NCc1ccc2c(c1)OCO2 (configuration not stated) | 14.7 | – | 0.0651 µM [rising, full curve, poor fit]
29 | O=C(C#Cc1ccccc1)c1ccc([N+](=O)[O-])cc1 | -134 | 29.1 µM [falling, single point] | 0.00731 µM [falling, full curve, poor fit]
30 | COc1cc(C)nc(OCCNC(=O)COc2ccc(Cl)cc2C)n1 | 56.8 | 0.58 µM [rising, full curve] | 1.46 µM [rising, full curve]
31 | CC(C)(C)NC(=O)Cn1nnc(-c2ccccc2Cl)n1 | – | 1.03 µM [falling, partial curve, poor fit] | –
32 | Cc1cccc(C(=O)NC(=S)NNC(=O)c2ccccc2Cl)c1 | 8.8 | – | 8.2 µM [rising, partial curve]
33 | COc1cc(C(=O)Nc2ccc(S(=O)(=O)NC(C)C)cc2)cc(OC)c1OC | – | 2.31 µM [rising, partial curve] | –
34 | C/C(CC(=O)C(F)(F)F)=N\NC(=O)/C(C#N)=C/N(C)C | -25.3 | – | –
35 | CC(=O)c1sc2nc(CSc3nnnn3-c3ccccc3)[nH]c(=O)c2c1C | – | – | 2.31 µM [rising, partial curve]
36 | NC(=O)c1c(NC(NC(=O)c2ccco2)C(=O)c2ccc(Cl)cc2)sc2c1CCCC2 (configuration not stated) | -1.54 | – | –
37 | CC(=O)Nc1cccc(NC(=O)C(=O)NCC(c2ccco2)N2CCc3ccccc3C2)c1 (configuration not stated) | – | – | 3.26 µM [rising, single point]
38 | Cc1cc(=O)c2n(Cc3ccc(Cl)cc3)nc[n+]2[nH]1 | 26.5 | – | 0.731 µM [falling, single point]
39 | O=C1/C(=C/c2ccc(F)cc2)SC(=S)N1CCCC(=O)N1CCCCC1CCO (configuration not stated) | -14.6 | – | –
40 | O=C(O)C1Nc2ccc(Br)cc2C2C=CCC12 (configuration not stated) | -11 | – | –

Some values from the results shown:
In AC50 [2], CC(=O)c1sc2nc(CSc3nnnn3-c3ccccc3)[nH]c(=O)c2c1C has the entry 2.31 µM [rising, partial curve]
In cell number change [%], NC(=O)c1c(NC(NC(=O)c2ccco2)C(=O)c2ccc(Cl)cc2)sc2c1CCCC2 (configuration not stated) has the entry -1.54
In cell number change [%], CCN(CC)c1ccc(/C=N/N2CCN(Cc3ccccc3Cl)CC2)cc1 has the entry -51.4

More compounds.

Row | Structure (SMILES) | cell number change [%] | AC50 [1] | AC50 [2]
41 | C[C@H](NC(=O)c1ccc(Br)cc1)C(=O)NCc1ccc(S(N)(=O)=O)cc1 | 6.22 | 0.092 µM [rising, full curve, poor fit] | –
42 | O=c1c(Cl)c(NCc2ccccc2Cl)cnn1C12CC3CC(CC(C3)C1)C2 | – | – | 10.3 µM [falling, partial curve]
43 | O=[N+]([O-])c1cc2c(cc1/C=N/Nc1nc(N3CCCC3)nc(N3CCCC3)n1)OCO2 | -11.9 | 0.517 µM [rising, partial curve, poor fit] | 0.731 µM [rising, partial curve, poor fit]
44 | O=C(Nc1cccc(C(=O)NC2CCCC2)c1)c1ccccc1 | -45.5 | 29.1 µM [falling, single point] | 32.6 µM [falling, partial curve, poor fit]
45 | CC(=O)N[C@@H](Cc1c[nH]c2ccccc12)C(=O)NCc1ccccc1 | 9.58 | – | –
46 | Cc1cc(S(=O)(=O)NCc2ccccc2)ccc1OCC(=O)N1CCCC1 | -8.8 | – | 7.31 µM [falling, single point]
47 | COc1ccc(O)c(/C=N/c2nc3ccccc3n2C)c1 | 21.4 | – | –
48 | COC(=O)c1ccc(C)c(NC(=O)CSc2nnc3ccccn23)c1 | -4.39 | – | 29.1 µM [rising, partial curve, poor fit]
49 | O=C(CSc1nnc2ccccn12)NNC(=O)c1ccc(F)cc1 | – | 6.51 µM [rising, single point] | –
50 | CC(=O)N1N=C(c2ccc(C)o2)CC1c1ccc(Br)cc1 (configuration not stated) | -10.9 | – | –
51 | CCN(CC)C(=O)C1CCN(S(=O)(=O)c2ccc3oc4ccccc4c3c2)CC1 | 0.08 | – | –
52 | CN(Cc1ccccc1)Cc1nc2c(c(=O)n(C)c(=O)n2C)n1Cc1ccccc1Cl | 11.2 | – | 2.31 µM [rising, single point]
53 | COc1ccccc1CN(C(=O)CNC(=O)c1ccco1)C(C(=O)NCC1CCCO1)c1ccc(OC)c(OC)c1 (configuration not stated) | -14.3 | – | –
54 | O=C(c1cc(-c2ccncc2)nc2ccccc12)N1CCN(c2ccc(N3CCOCC3)nn2)CC1 | 147 | 29.1 µM [rising, single point] | –
55 | Cc1ccc(C2=NC3(CCCC3)N=C2SCC(=O)Nc2ccc3c(c2)OCCO3)cc1 | 18 | – | 1.46 µM [rising, full curve]
56 | O=C(C1CCCN1C(=O)c1cccs1)N1CCN(S(=O)(=O)c2ccc(F)cc2)CC1 (configuration not stated) | 13.6 | – | 18.4 µM [rising, partial curve]
57 | CC(NC(=S)Nc1ccc(Cl)cc1Cl)C(c1cccs1)N1CCCC1 (configuration not stated) | 32.3 | 10.3 µM [rising, single point] | –
58 | Cc1ccc(-c2c(C)n([O-])c3c([n+]2=O)CCC3)cc1 | -20.8 | – | 20.6 µM [falling, single point]
59 | COC(=O)CCC(C)N1CCC(Oc2ccc(C(=O)N3CCCC3)cc2)CC1 (configuration not stated) | 18.9 | – | –
60 | C[C@@H]1CC[C@@]2(O[C@H](CCO)C[C@H](O)[C@H]2O)O1 | -17.7 | – | 25.9 µM [falling, single point]
